{"sequences": {"note": "Protein sequences, listed by entry. Tags and fused reporters are not part of them. Lines headed by an entry give the natural chain unless they say otherwise; changes in a name come on top.", "UniProt Q3UMR0": "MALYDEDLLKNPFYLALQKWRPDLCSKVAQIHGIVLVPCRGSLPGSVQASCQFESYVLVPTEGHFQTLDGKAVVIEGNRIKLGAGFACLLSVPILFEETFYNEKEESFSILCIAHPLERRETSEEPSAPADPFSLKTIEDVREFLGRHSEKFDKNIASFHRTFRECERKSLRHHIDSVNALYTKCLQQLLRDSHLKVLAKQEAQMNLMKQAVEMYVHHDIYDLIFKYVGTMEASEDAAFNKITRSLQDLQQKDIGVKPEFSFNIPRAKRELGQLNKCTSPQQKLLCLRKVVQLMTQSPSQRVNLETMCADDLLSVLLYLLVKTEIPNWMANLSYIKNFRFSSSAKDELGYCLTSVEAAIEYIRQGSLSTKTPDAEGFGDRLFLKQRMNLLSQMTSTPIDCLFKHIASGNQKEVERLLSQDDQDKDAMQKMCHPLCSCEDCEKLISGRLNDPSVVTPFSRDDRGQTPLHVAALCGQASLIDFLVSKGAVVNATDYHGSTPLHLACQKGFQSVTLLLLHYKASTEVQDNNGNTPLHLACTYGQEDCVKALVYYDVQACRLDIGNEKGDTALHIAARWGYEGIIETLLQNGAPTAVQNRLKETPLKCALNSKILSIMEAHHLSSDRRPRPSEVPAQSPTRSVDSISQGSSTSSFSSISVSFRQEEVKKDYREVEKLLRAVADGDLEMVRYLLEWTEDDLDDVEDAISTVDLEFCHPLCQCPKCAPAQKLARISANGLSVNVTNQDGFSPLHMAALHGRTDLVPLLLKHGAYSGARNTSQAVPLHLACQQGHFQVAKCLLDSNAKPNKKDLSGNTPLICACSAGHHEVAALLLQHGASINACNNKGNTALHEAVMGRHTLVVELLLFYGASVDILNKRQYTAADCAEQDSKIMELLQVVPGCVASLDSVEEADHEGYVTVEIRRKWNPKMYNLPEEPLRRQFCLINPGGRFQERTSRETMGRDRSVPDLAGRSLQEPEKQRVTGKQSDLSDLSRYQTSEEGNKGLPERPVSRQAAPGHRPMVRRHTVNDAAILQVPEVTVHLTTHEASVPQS"}, "source": "paper PMC9695596", "binders": {"B1": {"name": "Rab32 (endogenous, active GTP-bound form) (protein, UniProt Q9CZE3 1-223)", "chain": "MAGEGLGQQGASATAAPETREHLFKVLVIGELGVGKTSIIKRYVHQLFSQHYRATIGVDFALKVLNWDSRTLVRLQLWDIAGQERFGNMTRVYYKEALGAFVVFDISRSSTFDAVLKWKNDLDSKVHLPNGSPIPAVLLANKCDQKKDNSQSPSQMDQFCKDHGFTGWFETSAKDNINIDEATRFLVENMLANQQSFPSEEIDLDRIKLVEEPPTTKPRSQCC"}}, "molecular_target": "T7-GST-Varp-ANKR1 (ankyrin repeat domain 1 of Varp) (UniProt Q3UMR0)", "assay": "pull-down; T7-GST-ANKR1 on glutathione-Sepharose beads incubated 1 h at 4 °C with lysates of WT or Hps4-KO B16-F1 cells (50 mM HEPES-KOH pH 7.2, 150 mM NaCl, 1 mM MgCl2, 1% Triton X-100); bound proteins detected by immunoblotting; only the target purified", "note": "These are yes or no findings as the source states them, for the method shown. In cells and extracts the contact can be indirect. Binding calls can cover weak binding; strength is not graded here."}
{"binder": "B1", "values": [{"measurement": "binding", "value": "binds"}]}
